According to the supplement of paper PMC10849652:
Some of the results follow.

The chains behind the UniProt entries cited, without tags or fusion partners. Where a name states a change or a piece, a line headed by the entry shows the natural chain unless it says otherwise.
UniProt Q8NFZ0: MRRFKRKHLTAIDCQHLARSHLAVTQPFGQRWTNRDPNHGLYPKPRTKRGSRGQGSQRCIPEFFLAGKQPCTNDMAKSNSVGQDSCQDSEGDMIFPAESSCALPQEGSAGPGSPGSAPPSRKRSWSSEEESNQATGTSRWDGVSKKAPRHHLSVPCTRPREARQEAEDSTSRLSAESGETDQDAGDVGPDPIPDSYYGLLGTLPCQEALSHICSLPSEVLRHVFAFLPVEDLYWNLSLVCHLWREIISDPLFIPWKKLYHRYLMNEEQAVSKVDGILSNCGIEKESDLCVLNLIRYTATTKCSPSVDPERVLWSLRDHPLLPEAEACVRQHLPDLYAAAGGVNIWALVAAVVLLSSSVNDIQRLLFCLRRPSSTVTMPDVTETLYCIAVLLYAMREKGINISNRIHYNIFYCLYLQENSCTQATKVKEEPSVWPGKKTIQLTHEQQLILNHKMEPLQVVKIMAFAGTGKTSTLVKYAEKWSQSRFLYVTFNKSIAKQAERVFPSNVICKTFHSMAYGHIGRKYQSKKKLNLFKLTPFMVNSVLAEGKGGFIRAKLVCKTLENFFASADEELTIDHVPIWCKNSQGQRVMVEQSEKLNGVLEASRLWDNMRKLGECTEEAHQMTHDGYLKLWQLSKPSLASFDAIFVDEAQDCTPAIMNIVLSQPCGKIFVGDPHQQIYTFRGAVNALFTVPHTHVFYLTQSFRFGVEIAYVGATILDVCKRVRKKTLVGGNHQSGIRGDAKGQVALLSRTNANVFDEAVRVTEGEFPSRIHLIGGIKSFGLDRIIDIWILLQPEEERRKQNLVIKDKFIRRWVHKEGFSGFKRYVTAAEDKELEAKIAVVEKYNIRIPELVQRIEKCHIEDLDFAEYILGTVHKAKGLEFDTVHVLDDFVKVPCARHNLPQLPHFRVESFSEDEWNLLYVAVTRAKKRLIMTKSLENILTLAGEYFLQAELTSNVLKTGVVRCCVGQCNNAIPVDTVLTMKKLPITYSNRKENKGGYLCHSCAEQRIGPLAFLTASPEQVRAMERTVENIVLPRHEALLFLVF
UniProt Q9H9S5: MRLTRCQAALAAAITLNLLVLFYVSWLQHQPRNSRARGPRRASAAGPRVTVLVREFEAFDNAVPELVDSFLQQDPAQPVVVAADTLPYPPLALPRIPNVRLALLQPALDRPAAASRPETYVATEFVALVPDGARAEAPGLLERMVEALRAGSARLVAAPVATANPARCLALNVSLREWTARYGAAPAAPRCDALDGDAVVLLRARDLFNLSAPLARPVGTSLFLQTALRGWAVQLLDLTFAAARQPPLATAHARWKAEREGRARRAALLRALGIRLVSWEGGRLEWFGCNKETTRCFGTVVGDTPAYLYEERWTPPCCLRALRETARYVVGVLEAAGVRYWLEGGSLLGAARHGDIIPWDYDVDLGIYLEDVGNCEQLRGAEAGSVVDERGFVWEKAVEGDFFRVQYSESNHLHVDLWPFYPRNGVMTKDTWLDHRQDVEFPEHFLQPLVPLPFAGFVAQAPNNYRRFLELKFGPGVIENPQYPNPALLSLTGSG
UniProt Q96CD0: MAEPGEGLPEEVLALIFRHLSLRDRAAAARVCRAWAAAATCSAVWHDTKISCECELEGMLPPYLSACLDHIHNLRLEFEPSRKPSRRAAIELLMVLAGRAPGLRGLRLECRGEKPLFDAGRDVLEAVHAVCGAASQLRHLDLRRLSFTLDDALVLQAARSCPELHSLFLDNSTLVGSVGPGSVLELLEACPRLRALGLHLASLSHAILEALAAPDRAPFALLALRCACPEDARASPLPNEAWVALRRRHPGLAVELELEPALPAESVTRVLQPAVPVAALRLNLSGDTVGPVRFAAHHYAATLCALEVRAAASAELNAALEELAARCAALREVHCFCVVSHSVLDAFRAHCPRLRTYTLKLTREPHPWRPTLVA
UniProt Q8IW50: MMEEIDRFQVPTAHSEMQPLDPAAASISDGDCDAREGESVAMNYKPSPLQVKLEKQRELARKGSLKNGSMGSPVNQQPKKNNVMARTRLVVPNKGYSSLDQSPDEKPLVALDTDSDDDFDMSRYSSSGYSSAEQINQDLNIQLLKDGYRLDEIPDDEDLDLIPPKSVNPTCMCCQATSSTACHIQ
UniProt Q8TF40: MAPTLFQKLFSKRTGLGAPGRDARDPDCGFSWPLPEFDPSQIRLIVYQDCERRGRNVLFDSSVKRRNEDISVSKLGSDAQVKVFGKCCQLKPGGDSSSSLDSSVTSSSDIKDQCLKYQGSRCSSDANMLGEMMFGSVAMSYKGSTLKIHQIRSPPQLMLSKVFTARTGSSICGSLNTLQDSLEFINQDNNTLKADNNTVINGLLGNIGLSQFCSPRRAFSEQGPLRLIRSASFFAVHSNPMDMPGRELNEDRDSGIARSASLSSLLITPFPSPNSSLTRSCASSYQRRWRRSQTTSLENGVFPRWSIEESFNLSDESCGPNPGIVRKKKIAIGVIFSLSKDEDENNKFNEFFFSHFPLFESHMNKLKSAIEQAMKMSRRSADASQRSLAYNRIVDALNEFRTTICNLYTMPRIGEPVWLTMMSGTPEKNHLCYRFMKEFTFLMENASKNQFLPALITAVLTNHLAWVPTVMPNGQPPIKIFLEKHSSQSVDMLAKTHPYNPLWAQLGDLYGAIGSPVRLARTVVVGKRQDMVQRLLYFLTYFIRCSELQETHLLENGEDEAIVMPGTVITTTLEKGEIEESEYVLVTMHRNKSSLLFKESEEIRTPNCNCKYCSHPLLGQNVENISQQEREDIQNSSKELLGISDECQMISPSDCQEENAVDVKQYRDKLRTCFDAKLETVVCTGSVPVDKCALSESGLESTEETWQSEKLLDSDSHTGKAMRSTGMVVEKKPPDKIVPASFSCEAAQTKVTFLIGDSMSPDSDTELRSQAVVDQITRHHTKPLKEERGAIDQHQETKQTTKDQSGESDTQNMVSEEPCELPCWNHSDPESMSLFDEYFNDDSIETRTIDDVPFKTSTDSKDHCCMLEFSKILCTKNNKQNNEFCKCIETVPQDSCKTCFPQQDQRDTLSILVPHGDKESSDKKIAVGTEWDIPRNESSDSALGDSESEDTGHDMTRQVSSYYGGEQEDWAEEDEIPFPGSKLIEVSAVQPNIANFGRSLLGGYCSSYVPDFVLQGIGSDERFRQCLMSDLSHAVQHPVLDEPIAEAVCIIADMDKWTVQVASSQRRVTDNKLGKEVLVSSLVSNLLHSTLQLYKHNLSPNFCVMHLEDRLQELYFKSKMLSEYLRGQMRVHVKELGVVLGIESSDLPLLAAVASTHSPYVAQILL
UniProt P12318: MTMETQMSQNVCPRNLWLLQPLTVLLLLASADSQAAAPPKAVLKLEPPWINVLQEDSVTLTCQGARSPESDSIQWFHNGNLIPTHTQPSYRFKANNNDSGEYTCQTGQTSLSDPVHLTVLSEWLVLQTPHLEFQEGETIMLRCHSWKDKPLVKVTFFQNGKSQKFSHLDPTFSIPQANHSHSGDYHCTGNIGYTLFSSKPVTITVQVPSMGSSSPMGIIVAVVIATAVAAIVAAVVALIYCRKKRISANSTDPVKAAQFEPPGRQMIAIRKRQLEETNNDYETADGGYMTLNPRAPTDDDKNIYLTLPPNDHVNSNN
UniProt Q8TAV0: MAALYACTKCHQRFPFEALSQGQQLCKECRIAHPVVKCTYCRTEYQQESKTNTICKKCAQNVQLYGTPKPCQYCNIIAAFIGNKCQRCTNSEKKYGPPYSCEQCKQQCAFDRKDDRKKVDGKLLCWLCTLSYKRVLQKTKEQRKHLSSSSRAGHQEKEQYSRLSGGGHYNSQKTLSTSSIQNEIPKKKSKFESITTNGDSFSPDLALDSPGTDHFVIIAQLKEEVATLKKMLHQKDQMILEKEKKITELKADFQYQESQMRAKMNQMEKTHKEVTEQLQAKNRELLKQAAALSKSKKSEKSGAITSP
UniProt O94887: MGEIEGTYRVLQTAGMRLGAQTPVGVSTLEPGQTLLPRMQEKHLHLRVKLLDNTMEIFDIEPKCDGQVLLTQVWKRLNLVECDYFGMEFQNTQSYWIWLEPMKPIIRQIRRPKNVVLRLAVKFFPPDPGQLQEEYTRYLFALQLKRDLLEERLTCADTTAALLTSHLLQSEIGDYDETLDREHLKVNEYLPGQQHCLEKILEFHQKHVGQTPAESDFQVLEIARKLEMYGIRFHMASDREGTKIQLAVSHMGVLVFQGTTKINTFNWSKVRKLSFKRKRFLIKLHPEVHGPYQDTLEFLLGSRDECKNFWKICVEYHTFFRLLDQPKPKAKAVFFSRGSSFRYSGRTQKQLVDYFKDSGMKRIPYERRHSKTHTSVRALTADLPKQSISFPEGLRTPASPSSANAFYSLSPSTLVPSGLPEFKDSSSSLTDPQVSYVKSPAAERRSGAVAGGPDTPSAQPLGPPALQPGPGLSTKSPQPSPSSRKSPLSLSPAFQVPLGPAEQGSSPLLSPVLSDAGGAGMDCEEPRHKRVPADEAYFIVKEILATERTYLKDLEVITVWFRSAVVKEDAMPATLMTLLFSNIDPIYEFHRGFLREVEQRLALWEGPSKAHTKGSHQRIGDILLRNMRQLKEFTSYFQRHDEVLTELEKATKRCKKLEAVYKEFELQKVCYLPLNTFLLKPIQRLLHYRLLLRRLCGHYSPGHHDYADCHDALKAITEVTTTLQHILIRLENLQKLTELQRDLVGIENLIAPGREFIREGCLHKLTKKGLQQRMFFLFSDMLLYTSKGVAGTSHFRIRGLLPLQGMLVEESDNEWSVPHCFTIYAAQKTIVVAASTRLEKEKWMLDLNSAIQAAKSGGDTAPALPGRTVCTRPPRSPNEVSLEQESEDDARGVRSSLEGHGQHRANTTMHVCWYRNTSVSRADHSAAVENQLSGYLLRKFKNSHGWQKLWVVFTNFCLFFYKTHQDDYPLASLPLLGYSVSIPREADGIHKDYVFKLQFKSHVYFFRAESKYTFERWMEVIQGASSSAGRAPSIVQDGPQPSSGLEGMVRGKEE
UniProt Q9UKB1: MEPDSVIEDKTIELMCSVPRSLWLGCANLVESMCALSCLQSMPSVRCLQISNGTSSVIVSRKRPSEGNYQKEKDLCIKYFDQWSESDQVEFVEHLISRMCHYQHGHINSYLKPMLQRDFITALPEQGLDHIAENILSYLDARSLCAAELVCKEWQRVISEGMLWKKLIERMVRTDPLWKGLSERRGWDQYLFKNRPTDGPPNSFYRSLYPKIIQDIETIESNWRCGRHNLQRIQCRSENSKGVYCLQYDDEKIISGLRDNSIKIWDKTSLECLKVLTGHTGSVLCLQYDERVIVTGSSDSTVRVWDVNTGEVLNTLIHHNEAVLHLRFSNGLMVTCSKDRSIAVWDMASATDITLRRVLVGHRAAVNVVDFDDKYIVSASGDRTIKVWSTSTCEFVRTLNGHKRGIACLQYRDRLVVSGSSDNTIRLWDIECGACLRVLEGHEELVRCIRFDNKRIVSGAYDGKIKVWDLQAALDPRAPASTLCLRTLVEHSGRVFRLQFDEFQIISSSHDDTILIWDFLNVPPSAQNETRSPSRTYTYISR
UniProt Q9NVK5: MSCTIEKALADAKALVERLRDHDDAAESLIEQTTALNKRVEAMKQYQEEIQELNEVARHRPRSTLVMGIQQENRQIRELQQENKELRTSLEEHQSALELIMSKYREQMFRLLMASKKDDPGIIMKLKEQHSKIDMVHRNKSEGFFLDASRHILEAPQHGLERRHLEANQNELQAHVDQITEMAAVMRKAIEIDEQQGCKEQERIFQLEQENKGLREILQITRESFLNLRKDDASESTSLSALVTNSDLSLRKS
UniProt Q8NFG4: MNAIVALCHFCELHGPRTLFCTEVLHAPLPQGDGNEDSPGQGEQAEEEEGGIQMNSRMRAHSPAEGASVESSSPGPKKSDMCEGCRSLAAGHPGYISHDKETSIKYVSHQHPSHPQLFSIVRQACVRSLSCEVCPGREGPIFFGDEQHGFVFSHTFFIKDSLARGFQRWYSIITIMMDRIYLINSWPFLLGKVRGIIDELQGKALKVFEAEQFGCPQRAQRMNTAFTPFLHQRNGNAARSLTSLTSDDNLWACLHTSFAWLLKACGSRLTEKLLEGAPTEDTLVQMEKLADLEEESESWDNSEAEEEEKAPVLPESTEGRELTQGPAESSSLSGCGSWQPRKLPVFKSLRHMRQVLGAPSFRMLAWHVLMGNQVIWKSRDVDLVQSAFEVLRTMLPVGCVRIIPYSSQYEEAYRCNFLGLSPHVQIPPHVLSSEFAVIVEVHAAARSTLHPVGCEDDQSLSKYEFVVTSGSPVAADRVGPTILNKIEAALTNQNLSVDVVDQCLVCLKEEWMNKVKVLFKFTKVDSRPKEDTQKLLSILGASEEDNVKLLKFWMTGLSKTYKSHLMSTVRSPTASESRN
UniProt Q9Y324: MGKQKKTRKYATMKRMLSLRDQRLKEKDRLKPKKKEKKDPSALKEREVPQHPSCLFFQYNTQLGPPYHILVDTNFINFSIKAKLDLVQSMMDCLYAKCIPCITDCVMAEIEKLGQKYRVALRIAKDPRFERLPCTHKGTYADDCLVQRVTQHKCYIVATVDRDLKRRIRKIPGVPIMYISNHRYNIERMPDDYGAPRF

Compound: C1=CC=C(C=C1)[C@H](COC2=CC3=C(C=C2)NC(=O)N3)NC(=O)C4=CC=CN(C4=O)CC5=CC(=C(C=C5)F)F
Assay: log2 fold change, soluble protein after heating vs DMSO (PISA); higher = thermal stabilisation; K562 cells, 10 uM, 30 min; active = over 0.2 and 3.5 SD of the protein, either way, in both replicates (recomputed)
Outline: (§1)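 Aliquots of K562 cells (2×10^6 cells/mL) treated with 10 μM compound for 30 min were heated for 3 min over 48°C-58°C. After pooling and extraction in PBS with 0.5% NP-40 at 4°C, soluble protein from a 21,000xg, 90 min spin was quantified by TMTpro 16plex LC-MS/MS with channel sums equalised. Thermal stability is expressed against control samples, from duplicates, as a log2 fold change.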

Row | Target | log2 fold change
1 | FBH1 isoform 2 (UniProt Q8NFZ0) | inactive: -0.124
2 | FKRP (UniProt Q9H9S5) | inactive: 0.124
3 | FERMT2 isoform 3 (UniProt Q96AC1) | inactive: 0.033
4 | FBXO44 (UniProt Q9H4M3) | inactive: -0.042
5 | FBXL8 (UniProt Q96CD0) | inactive: -0.14
6 | FAM219A (UniProt Q8IW50) | inactive: 0.056
7 | FNIP1 (UniProt Q8TF40) | inactive: -0.084
8 | FHOD1 (UniProt Q9Y613) | inactive: -0.033
9 | FCGR2A (UniProt P12318) | inactive: -0.091
10 | FAT3 isoform 1 (UniProt Q8TDW7) | inactive: 0.27
11 | FAM76A isoform 3 (UniProt Q8TAV0) | inactive: -0.095

Compound: CC1=C(SC2=C1C(=N[C@H](C3=NN=C(N32)C)CC(=O)N)C4=CC=C(C=C4)Cl)C
Assay: as above
Outline: as §1

Row | Target | log2 fold change
12 | FARP2 (UniProt O94887) | inactive: -0.084
13 | FERMT2 isoform 3 (UniProt Q96AC1) | inactive: -0.004
14 | FAM98C (UniProt Q17RN3) | inactive: -0.148
15 | FAM53C (UniProt Q9NYF3) | inactive: 0.083
16 | FBXW11 (UniProt Q9UKB1) | inactive: 0.145
17 | FBXO44 (UniProt Q9H4M3) | inactive: 0.067
18 | FBXL8 (UniProt Q96CD0) | inactive: 0.252
19 | FGFR1OP2 isoform 2 (UniProt Q9NVK5) | inactive: 0.152
20 | FMR1 (UniProt Q06787) | inactive: -0.237
21 | FAM219A (UniProt Q8IW50) | inactive: 0.043
22 | FANCL isoform 2 (UniProt Q9NW38) | inactive: 0.138
23 | FCHSD1 (UniProt Q86WN1) | inactive: -0.154
24 | FNIP1 (UniProt Q8TF40) | inactive: 0.168
25 | FHOD1 (UniProt Q9Y613) | inactive: -0.065
26 | FCHO1 (UniProt O14526) | inactive: 0.013
27 | FLII isoform 2 (UniProt Q13045) | inactive: 0.011
28 | FLCN (UniProt Q8NFG4) | inactive: 0.13
29 | FBRS (UniProt J3KNZ9) | inactive: 0.107
30 | FIZ1 (UniProt Q96SL8) | inactive: -0.297

Compound: CC1=C2C(=CC=C1)N=C(N(C2=O)C3=CC=CC=C3C)CN4C=NC5=C(N=CN=C54)N
Assay: as above
Outline: as §1

Row | Target | log2 fold change
31 | FLT1 (UniProt P17948) | inactive: 0.298
32 | FBH1 isoform 2 (UniProt Q8NFZ0) | inactive: 0.03
33 | FAM83A (UniProt Q86UY5) | inactive: 0.17
34 | FKRP (UniProt Q9H9S5) | inactive: 0.008
35 | FARP2 (UniProt O94887) | inactive: 0.032
36 | FAM83G (UniProt A6ND36) | inactive: 0.192
37 | FBXL4 (UniProt Q9UKA2) | inactive: 0.061
38 | FBXW11 (UniProt Q9UKB1) | inactive: 0.022
39 | FANCL isoform 2 (UniProt Q9NW38) | inactive: -0.112
40 | FHOD1 (UniProt Q9Y613) | inactive: 0.086
41 | FCHO1 (UniProt O14526) | inactive: 0.125
42 | FAT4 (UniProt Q6V0I7) | inactive: 0.363
43 | FCF1 (UniProt Q9Y324) | inactive: -0.362
44 | FCGR2A (UniProt P12318) | inactive: 0.1
45 | FAT3 isoform 1 (UniProt Q8TDW7) | inactive: 0.079
46 | FLCN (UniProt Q8NFG4) | inactive: 0.006
47 | FBRS (UniProt J3KNZ9) | inactive: 0.053
48 | FER (UniProt P16591) | inactive: 0.382
49 | FAM76A isoform 3 (UniProt Q8TAV0) | inactive: -0.113
50 | FAM53B (UniProt Q14153) | inactive: 0.134
51 | FIZ1 (UniProt Q96SL8) | inactive: -0.097

Compound: Cc1sc2c(c1C)C(c1ccc(Cl)cc1)=N[C@@H](CC(=O)OC(C)(C)C)c1nnc(C)n1-2
Assay: as above
Outline: as §1

Row | Target | log2 fold change
52 | FBH1 isoform 2 (UniProt Q8NFZ0) | inactive: 0.042
53 | FAM83A (UniProt Q86UY5) | inactive: 0.071
54 | FKRP (UniProt Q9H9S5) | inactive: -0.039
55 | FARP2 (UniProt O94887) | inactive: 0.12
56 | FBRSL1 (UniProt Q9HCM7) | inactive: 0.076
57 | FNBP1 (UniProt Q96RU3) | inactive: 0.091
58 | FAM83G (UniProt A6ND36) | inactive: 0.059
59 | FAM222B (UniProt Q8WU58) | inactive: 0.06
60 | FERMT2 isoform 3 (UniProt Q96AC1) | inactive: -0.042
61 | FAM53C (UniProt Q9NYF3) | inactive: -0.177
62 | FBXW11 (UniProt Q9UKB1) | inactive: -0.183
63 | FBXL8 (UniProt Q96CD0) | inactive: 0.148
64 | FAM219A (UniProt Q8IW50) | inactive: 0.026
65 | FNIP1 (UniProt Q8TF40) | inactive: 0.05
66 | FCHO1 (UniProt O14526) | inactive: 0.022
67 | FAT4 (UniProt Q6V0I7) | inactive: 0.106
68 | FBXO11 isoform 5 (UniProt Q86XK2) | inactive: 0.349
69 | FCF1 (UniProt Q9Y324) | inactive: 0.248
70 | FCGR2A (UniProt P12318) | inactive: -0.02
71 | FNDC3A (UniProt Q9Y2H6) | inactive: 0.272
72 | FLII isoform 2 (UniProt Q13045) | inactive: -0.037
73 | FLCN (UniProt Q8NFG4) | inactive: -0.085
74 | FAM76A isoform 3 (UniProt Q8TAV0) | inactive: 0.081
